# Results as given in PMC12431657, “Discovery and mechanistic insights of dibenzoylmethane as a broad spectrum inhibitor of coronavirus” (PLOS Pathogens, 2025).
# Counter-ions that a name gives are not always drawn. Like-named read-outs stand apart in the source and are kept apart here. Out of some 3,300 compounds screened, about 95 (3%) showed an effect of 50% or more. The list shows a part of the results.
# Tested on: HCoV-229E
# Design: species or system Huh-7; HTS, protection from HCoV-229E induced cell death, luminescent cell viability (CellCounting-Lite 2.0), inhibition rate
# Conditions: 24 h post infection, 1 h compound pre-incubation, 10 µM, inhibitor
Compound,229E Inhibition rate [%],"229E Inhibition rate (229E Inhibition rate, 24 h) [%]"
O[C@]12CO[C@H](c3ccc4c(c3)OCO4)[C@H]1CO[C@@H]2c1ccc2c(c1)OCO2 [Paulownin],16.7,
CC(C)=CCC[C@@](C)(O)[C@H]1CC[C@]2(C)[C@@H]1[C@H](O)C[C@@H]1[C@@]3(C)CC[C@H](O[C@@H]4O[C@H](CO)[C@@H](O)[C@H](O)[C@H]4O[C@@H]4O[C@H](CO)[C@@H](O)[C@H](O)[C@H]4O)C(C)(C)[C@@H]3CC[C@]12C [(20R)-Ginsenoside Rg3],21.4,
C[C@@H]1O[C@@H](O[C@H]2[C@H](O[C@H]3CC[C@@]4(C)[C@@H](CC[C@]5(C)[C@@H]4CC=C4[C@@H]6CC(C)(C)CC[C@]6(C(=O)O)CC[C@]45C)[C@]3(C)CO)OC[C@H](O[C@@H]3O[C@H](CO)[C@@H](O)[C@H](O)[C@H]3O)[C@@H]2O)[C@H](O)[C@H](O)[C@H]1O [Pulsatilla saponin D],3.9,
CC(=O)N[C@H](C(=O)O)C(C)C [Acetylvaline],17.3,
"O=C(O)Cc1ccc(O)c(O)c1 [3,4-Dihydroxybenzeneacetic acid]",39.5,
CCC(C)C(=O)C(=O)O (centres unmarked) [3-Methyl-2-oxovaleric acid],37.4,
CC1=CC(=O)c2ccccc2C1=O [Menadione],8.7,
C=C(CC[C@@H](C(=O)O)[C@H]1[C@H](O)C[C@@]2(C)C3=C(CC[C@]12C)[C@@]1(C)CC[C@H](OC(C)=O)C(C)(C)[C@@H]1CC3)C(C)C [Pachymic acid],14.2,
Cc1ncccc1O [3-Hydroxy-2-methylpyridine],20.2,
COc1cc(-c2oc3cc(O[C@@H]4O[C@H](CO)[C@@H](O)[C@H](O)[C@H]4O)cc(O)c3c(=O)c2O)ccc1O [Brassicin],9.2,
CC(C)=CCC/C(C)=C\CO [Nerol],8.9,
OC[C@H]1O[C@H](O[C@H]2O[C@H](CO)[C@@H](O)[C@H](O)[C@H]2O)[C@H](O)[C@@H](O)[C@@H]1O [D-(+)-Trehalose dihydrate],,12.4
C/C=C/c1ccc(O)c(OC)c1 [Isoeugenol],10.1,
COc1cc(C(C)=O)cc(OC)c1O [Acetosyringone],18.9,
C[C@H](CC(=O)O)[C@H]1CC[C@H]2[C@@H]3[C@H](O)C[C@@H]4C[C@H](O)CC[C@]4(C)[C@H]3C[C@H](O)[C@]12C [Norcholic acid],0,
CCC(O)CC [3-Pentanol],19,
OC[C@H]1O[C@@H](O[C@@H]2OC=C[C@H]3[C@H](O)[C@@H]4O[C@]4(CO)[C@@H]23)[C@H](O)[C@@H](O)[C@@H]1O [Catalpol],10.1,
COc1cc2c3cc1Oc1c(OC)c(OC)cc4c1[C@@H](Cc1ccc(O)c(c1)Oc1ccc(cc1)C[C@@H]3N(C)CC2)N(C)CC4 [Berbamine],,5
C=C1C=CC(C(C)C)CC1 (stereo not drawn) [β-Phellandrene],51.8,

Compound,229E Inhibition rate [%],"229E Inhibition rate (229E Inhibition rate, 24 h) [%]"
CCCCCC(C)O (centres unmarked) [2-Heptanol],36.9,
O=c1c(O)c(-c2ccc(O)c(O)c2)oc2cc(O)ccc12 [Fisetin],43.1,
CC1(C)CC[C@]2(C(=O)O)[C@H](O)C[C@]3(C)C(=CC[C@@H]4[C@@]5(C)C[C@H](O)[C@H](O)C(CO)(CO)[C@@H]5CC[C@]43C)[C@@H]2C1 [Platicodigenin],5.1,
COc1cc2c(c(OC)c1OC)-c1c3cc4c(c1OC[C@@H](C)[C@@](C)(O)C(=O)O[C@@H]2[C@@](C)(O)[C@@H](C)C3)OCO4 [Gomisin D],19.4,
COc1ccc(CC2c3cc(OC)c(OC)cc3CCN2C)cc1OC (racemic) [DL-Laudanosine],36.8,
CCCCOC(=O)/C=C\C(=O)OCCCC [Dibutyl maleate],0,
O=c1oc2cc(O)ccc2c2cc(O)c(O)cc12 [Urolithin C],16.1,
CC[C@@]1(O)C(=O)OCc2c1cc1n(c2=O)Cc2cc3c([N+](=O)[O-])cccc3nc2-1 [Rubitecan],5.6,
CCCCCCC[C@H](O)CC(=O)CCc1ccc(O)c(OC)c1 [8-Gingerol],13.3,
COc1ccc2ccc(=O)oc2c1 [Herniarin],11.6,
OC[C@H]1O[C@@H]2O[C@H]3[C@H](O)[C@@H](O)[C@@H](O[C@H]4[C@H](O)[C@@H](O)[C@@H](O[C@H]5[C@H](O)[C@@H](O)[C@@H](O[C@H]6[C@H](O)[C@@H](O)[C@@H](O[C@H]7[C@H](O)[C@@H](O)[C@@H](O[C@H]1[C@H](O)[C@H]2O)O[C@@H]7CO)O[C@@H]6CO)O[C@@H]5CO)O[C@@H]4CO)O[C@@H]3CO [α-Cyclodextrin],0,
C[C@@H]1CC[C@]2(C(=O)O[C@@H]3O[C@H](CO)[C@@H](O)[C@H](O)[C@H]3O)CC[C@]3(C)C(=CC[C@@H]4[C@@]5(C)CC[C@H](O)[C@](C)(C(=O)O)[C@@H]5CC[C@]43C)[C@@H]2[C@]1(C)O [Ilexsaponin A],58.5,
"CC(=O)CC(=O)CCC(=O)O [4,6-Dioxoheptanoic acid]",4.2,
Oc1cc(O)c2cc(O)c(-c3cc(O)c(O)c(O)c3)[o+]c2c1 [Delphinidin (chloride)],13.7,
C[C@H]1[C@H](C)CC[C@]2(C(=O)O)CC[C@]3(C)C(=CC[C@@H]4[C@@]5(C)CCC(=O)C(C)(C)[C@@H]5CC[C@]43C)[C@H]12 [Ursonic acid],4.7,
CCOC(=O)CC(C)O (centres unmarked) [Ethyl 3-hydroxybutyrate],11.8,
CC(=O)[C@@]1(O)CC[C@H]2[C@@H]3CC=C4CC(O)CC[C@]4(C)[C@H]3CC[C@@]21C (some centres unmarked) [17a-Hydroxypregnenolone],5.8,
O=C(O)c1ccc2c(c1)C(=O)c1ccccc1C2=O [Anthraquinone-2-carboxylic acid],32.8,
CC(=O)O[C@@H]1C[C@@]23C[C@@]24CC[C@H](O[C@@H]2OC[C@@H](O)[C@H](O)[C@H]2O)C(C)(C)[C@@H]4CC[C@H]3[C@]2(C)C[C@@H]3O[C@]4(C[C@@H](C)[C@@H]3[C@@]12C)OC[C@@]1(C)O[C@@H]41 [26-Deoxyactein],30.8,

# Fetched one by one from the entries so far, 3 records:
Compound,229E Inhibition rate [%],"229E Inhibition rate (229E Inhibition rate, 24 h) [%]"
COc1cc(-c2oc3cc(O[C@@H]4O[C@H](CO)[C@@H](O)[C@H](O)[C@H]4O)cc(O)c3c(=O)c2O)ccc1O [Brassicin],9.2,
COc1ccc2ccc(=O)oc2c1 [Herniarin],11.6,
CCCCOC(=O)/C=C\C(=O)OCCCC [Dibutyl maleate],0,
